Taken from: PubChem BioAssay AID1259425 (University of Nebraska Medical Center, 2018)
Here is an unselected part of about 14,000 reagents. A reagent listed more than once was tested more than once; the source does not tell the runs apart. Further read-outs or replicates are left out here. Not given: the time to read-out.

Assay: 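Compare each knockdown with KSR1 silencing using changes in marker transcripts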 (primary screen)
Cell system: HCT116 human colon cancer cells
Reagent: siRNA pool against human genes, 50 nM siRNA
Detection: 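After 50 nM siRNA pool, branched-DNA assay measures six marker transcripts per well, minus blank, normalised to the geometric mean of two housekeeping transcripts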
Scale: BNIP3L mRNA: higher = more BNIP3L transcript after knockdown; NDRG1 mRNA: higher = more NDRG1 transcript after knockdown

RUNX1-IT1 (RUNX1 intronic transcript 1) gave BNIP3L mRNA, set 1 = 0.193; NDRG1 mRNA, set 1 = 0.416.
Silencing of TMEM175 (transmembrane protein 175) came out at: BNIP3L mRNA, set 1 = 0.128; NDRG1 mRNA, set 1 = 0.223.
For PUS7L (pseudouridine synthase 7 like), the entry reads BNIP3L mRNA, set 1 = 0.274; NDRG1 mRNA, set 1 = 0.0589.
Depletion of S1PR5 (sphingosine-1-phosphate receptor 5) resulted in: BNIP3L mRNA, set 1 = 0.11; NDRG1 mRNA, set 1 = 0.131.
VANGL1 (VANGL planar cell polarity protein 1) showed BNIP3L mRNA, set 1 = 0.125; NDRG1 mRNA, set 1 = 0.162.
Knock-down of MECP2 (methyl-CpG binding protein 2) came out at: BNIP3L mRNA, set 1 = 0.0364; NDRG1 mRNA, set 1 = 0.209.
With knock-down of CSRP3 (cysteine and glycine rich protein 3), the record shows BNIP3L mRNA, set 1 = 0.0724; NDRG1 mRNA, set 1 = 0.51.
Against TK1 (thymidine kinase 1), the entry reads BNIP3L mRNA, set 1 = 0.0517; NDRG1 mRNA, set 1 = 0.0927.
Against USP32P2 (ubiquitin specific peptidase 32 pseudogene 2), the entry reads BNIP3L mRNA, set 1 = 0.0605; NDRG1 mRNA, set 1 = 0.0958.
OR12D2 (olfactory receptor family 12 subfamily D member 2) scored BNIP3L mRNA, set 1 = 0.181; NDRG1 mRNA, set 1 = 0.522.
Against ACTL8 (actin like 8), the values are BNIP3L mRNA, set 1 = 0.108; NDRG1 mRNA, set 1 = 0.362.
After knock-down of PARP1 (poly(ADP-ribose) polymerase 1), the screen gave BNIP3L mRNA, set 1 = 0.0662; NDRG1 mRNA, set 1 = 0.205.
After knock-down of WDR6 (WD repeat domain 6), the screen gave BNIP3L mRNA, set 1 = 0.0774; NDRG1 mRNA, set 1 = 0.258.
For KDM4A (lysine demethylase 4A) the deposit lists BNIP3L mRNA, set 1 = 0.131; NDRG1 mRNA, set 1 = 0.58.
For AJAP1 (adherens junctions associated protein 1), the entry reads BNIP3L mRNA, set 1 = 0.139; NDRG1 mRNA, set 1 = 0.302.
Against PDP2 (pyruvate dehydrogenase phosphatase catalytic subunit 2) the deposit lists BNIP3L mRNA, set 1 = 0.0924; NDRG1 mRNA, set 1 = 0.149.

4 entries from above, set out differently.
target	BNIP3L mRNA, set 1	NDRG1 mRNA, set 1
S1PR5 (sphingosine-1-phosphate receptor 5)	0.11	0.131
VANGL1 (VANGL planar cell polarity protein 1)	0.125	0.162
MECP2 (methyl-CpG binding protein 2)	0.0364	0.209
CSRP3 (cysteine and glycine rich protein 3)	0.0724	0.51

The list goes on:
Silencing of NR1D1 (nuclear receptor subfamily 1 group D member 1) gave: BNIP3L mRNA, set 1 = 0.122; NDRG1 mRNA, set 1 = 0.115.
Depletion of ORC6 (origin recognition complex subunit 6) gave: BNIP3L mRNA, set 1 = 0.0971; NDRG1 mRNA, set 1 = 0.0946.
Knock-down of ENOX1 (ecto-NOX disulfide-thiol exchanger 1) gave: BNIP3L mRNA, set 1 = 0.152; NDRG1 mRNA, set 1 = 0.143.
Against MFAP3 (microfibril associated protein 3), the entry reads BNIP3L mRNA, set 1 = 0.0673; NDRG1 mRNA, set 1 = 0.134.
Knock-down of AVPR1A (arginine vasopressin receptor 1A) resulted in: BNIP3L mRNA, set 1 = 0.145; NDRG1 mRNA, set 1 = 0.201.
After knock-down of AVPR1A (arginine vasopressin receptor 1A) the results were BNIP3L mRNA, set 1 = 0.106; NDRG1 mRNA, set 1 = 0.34.
KIF13A (kinesin family member 13A) gave BNIP3L mRNA, set 1 = 0.0524; NDRG1 mRNA, set 1 = 0.397.
GTF3C3 (general transcription factor IIIC subunit 3) showed BNIP3L mRNA, set 1 = 0.223; NDRG1 mRNA, set 1 = 0.0705.
For ANTKMT (adenine nucleotide translocase lysine methyltransferase), the entry reads BNIP3L mRNA, set 1 = 0.114; NDRG1 mRNA, set 1 = 0.0965.
After knock-down of PPM1G (protein phosphatase, Mg2+/Mn2+ dependent 1G) the results were BNIP3L mRNA, set 1 = 0.0922; NDRG1 mRNA, set 1 = 0.262.
Silencing of RNF125 (ring finger protein 125) resulted in: BNIP3L mRNA, set 1 = 0.082; NDRG1 mRNA, set 1 = 0.142.
After knock-down of TUB (TUB bipartite transcription factor) the results were BNIP3L mRNA, set 1 = 0.0763; NDRG1 mRNA, set 1 = 0.0704.
